In patent publication US20140045805A1, “Fragrance Compositions and Other Compositions Which Contain Naturally Occurring Substances Found in Corals” (priority 2007, published 2014):
“Also recorded” adds a separate entry of the source.

System: healthy volunteers (men and women)
Assay: Local and general tolerability and safety of airborne nasal delivery
Format: in vivo, human
Conditions: 12 ng intranasal
Procedure: The physiologic and psychological effects of pregna-5,20-dien-3β-ol were investigated in men and women. Additionally, the local and general tolerability and safety of pregna-5,20-dien-3β-ol delivered airborne to the nasal passages were also evaluated.
After completion of physiologic recordings and the modified DABS-70 (#3), all surface electrodes were removed and the subject went through an exit interview lasting 5 minutes. At this time the investigator recorded again the arterial blood pressure and also inquired the subject about his or her state of feelings, and also any possible adverse effect appearing during the study session.

C=C[C@H]1CC[C@H]2[C@@H]3CC=C4C[C@@H](O)CC[C@]4(C)[C@H]3CC[C@]12C [pregna-5,20-dien-3β-ol, Pregna-5,20-dien-3β-ol]
Perception of the substance as an odor: none of the volunteers studied was able to smell; also recorded: did not perceive the active substance as an odor
